# Assay results taken from the supplement of paper PMC12595434, “Development of retinoid nuclear receptor pathway antagonists through targeting aldehyde dehydrogenase 1A3” (iScience, 2025).
# Protein sequences, listed by entry. Tags and fused reporters are not part of them. Lines headed by an entry give the natural chain unless they say otherwise; changes in a name come on top.
# UniProt P48443: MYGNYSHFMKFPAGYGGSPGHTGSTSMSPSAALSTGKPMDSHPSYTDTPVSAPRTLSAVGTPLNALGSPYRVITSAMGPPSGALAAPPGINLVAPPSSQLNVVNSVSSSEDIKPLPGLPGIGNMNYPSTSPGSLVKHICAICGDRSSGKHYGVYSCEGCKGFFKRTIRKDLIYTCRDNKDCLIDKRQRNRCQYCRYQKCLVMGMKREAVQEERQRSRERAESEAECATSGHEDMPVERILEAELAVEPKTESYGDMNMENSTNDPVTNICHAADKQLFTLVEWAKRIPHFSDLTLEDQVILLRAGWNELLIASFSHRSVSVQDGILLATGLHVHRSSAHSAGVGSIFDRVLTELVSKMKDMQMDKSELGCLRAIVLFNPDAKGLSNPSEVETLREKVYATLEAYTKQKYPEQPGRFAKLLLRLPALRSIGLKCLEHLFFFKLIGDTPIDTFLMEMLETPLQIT
# UniProt P40306: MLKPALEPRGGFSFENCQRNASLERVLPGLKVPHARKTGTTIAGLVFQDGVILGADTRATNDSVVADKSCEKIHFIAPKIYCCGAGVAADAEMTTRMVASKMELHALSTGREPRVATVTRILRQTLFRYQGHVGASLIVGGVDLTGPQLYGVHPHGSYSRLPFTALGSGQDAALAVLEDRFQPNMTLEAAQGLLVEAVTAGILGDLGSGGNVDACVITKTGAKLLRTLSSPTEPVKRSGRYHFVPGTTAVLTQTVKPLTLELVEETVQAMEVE
# UniProt P43897: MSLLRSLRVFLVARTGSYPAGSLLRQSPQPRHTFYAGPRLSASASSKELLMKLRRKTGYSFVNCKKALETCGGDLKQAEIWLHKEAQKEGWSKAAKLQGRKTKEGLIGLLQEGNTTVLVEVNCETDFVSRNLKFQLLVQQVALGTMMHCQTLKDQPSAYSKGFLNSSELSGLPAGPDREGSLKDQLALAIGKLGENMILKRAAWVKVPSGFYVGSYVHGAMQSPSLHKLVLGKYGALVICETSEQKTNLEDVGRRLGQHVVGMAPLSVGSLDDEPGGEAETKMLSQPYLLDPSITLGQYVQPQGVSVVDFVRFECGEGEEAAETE
# UniProt P38935: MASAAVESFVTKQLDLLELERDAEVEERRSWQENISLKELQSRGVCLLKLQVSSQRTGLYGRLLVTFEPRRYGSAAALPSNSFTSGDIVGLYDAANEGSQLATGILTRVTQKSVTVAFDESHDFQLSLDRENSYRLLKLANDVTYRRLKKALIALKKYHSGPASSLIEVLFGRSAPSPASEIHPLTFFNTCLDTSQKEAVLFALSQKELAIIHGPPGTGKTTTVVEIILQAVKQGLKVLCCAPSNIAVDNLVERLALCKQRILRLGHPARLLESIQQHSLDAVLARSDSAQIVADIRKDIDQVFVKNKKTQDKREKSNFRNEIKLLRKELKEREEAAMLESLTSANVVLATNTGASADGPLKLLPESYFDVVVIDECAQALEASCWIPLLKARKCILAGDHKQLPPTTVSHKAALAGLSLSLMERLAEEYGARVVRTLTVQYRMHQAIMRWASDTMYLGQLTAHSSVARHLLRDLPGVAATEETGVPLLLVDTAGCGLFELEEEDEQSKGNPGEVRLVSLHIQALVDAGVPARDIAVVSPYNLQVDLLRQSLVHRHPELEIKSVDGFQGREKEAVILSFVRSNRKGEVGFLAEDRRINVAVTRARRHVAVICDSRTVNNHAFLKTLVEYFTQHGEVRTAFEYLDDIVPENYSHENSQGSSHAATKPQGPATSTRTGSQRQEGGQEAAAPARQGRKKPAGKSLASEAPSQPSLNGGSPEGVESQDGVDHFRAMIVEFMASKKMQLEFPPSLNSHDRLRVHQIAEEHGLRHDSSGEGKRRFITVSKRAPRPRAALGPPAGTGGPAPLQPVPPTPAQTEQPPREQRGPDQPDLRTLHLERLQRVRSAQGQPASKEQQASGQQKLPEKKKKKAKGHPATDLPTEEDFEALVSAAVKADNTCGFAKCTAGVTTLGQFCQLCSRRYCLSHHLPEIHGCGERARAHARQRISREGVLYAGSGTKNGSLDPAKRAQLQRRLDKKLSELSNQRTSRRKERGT
# UniProt P48426: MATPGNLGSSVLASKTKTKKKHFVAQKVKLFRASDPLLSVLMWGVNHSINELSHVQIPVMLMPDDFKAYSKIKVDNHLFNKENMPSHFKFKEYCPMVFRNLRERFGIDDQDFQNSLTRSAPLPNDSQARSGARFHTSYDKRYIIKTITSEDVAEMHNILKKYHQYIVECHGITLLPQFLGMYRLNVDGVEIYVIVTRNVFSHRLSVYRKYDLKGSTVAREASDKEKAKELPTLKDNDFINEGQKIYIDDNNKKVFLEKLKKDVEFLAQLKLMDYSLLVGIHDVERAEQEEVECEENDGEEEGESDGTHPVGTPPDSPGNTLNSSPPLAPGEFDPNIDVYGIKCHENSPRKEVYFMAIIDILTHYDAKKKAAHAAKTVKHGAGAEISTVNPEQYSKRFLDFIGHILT
# UniProt P42695: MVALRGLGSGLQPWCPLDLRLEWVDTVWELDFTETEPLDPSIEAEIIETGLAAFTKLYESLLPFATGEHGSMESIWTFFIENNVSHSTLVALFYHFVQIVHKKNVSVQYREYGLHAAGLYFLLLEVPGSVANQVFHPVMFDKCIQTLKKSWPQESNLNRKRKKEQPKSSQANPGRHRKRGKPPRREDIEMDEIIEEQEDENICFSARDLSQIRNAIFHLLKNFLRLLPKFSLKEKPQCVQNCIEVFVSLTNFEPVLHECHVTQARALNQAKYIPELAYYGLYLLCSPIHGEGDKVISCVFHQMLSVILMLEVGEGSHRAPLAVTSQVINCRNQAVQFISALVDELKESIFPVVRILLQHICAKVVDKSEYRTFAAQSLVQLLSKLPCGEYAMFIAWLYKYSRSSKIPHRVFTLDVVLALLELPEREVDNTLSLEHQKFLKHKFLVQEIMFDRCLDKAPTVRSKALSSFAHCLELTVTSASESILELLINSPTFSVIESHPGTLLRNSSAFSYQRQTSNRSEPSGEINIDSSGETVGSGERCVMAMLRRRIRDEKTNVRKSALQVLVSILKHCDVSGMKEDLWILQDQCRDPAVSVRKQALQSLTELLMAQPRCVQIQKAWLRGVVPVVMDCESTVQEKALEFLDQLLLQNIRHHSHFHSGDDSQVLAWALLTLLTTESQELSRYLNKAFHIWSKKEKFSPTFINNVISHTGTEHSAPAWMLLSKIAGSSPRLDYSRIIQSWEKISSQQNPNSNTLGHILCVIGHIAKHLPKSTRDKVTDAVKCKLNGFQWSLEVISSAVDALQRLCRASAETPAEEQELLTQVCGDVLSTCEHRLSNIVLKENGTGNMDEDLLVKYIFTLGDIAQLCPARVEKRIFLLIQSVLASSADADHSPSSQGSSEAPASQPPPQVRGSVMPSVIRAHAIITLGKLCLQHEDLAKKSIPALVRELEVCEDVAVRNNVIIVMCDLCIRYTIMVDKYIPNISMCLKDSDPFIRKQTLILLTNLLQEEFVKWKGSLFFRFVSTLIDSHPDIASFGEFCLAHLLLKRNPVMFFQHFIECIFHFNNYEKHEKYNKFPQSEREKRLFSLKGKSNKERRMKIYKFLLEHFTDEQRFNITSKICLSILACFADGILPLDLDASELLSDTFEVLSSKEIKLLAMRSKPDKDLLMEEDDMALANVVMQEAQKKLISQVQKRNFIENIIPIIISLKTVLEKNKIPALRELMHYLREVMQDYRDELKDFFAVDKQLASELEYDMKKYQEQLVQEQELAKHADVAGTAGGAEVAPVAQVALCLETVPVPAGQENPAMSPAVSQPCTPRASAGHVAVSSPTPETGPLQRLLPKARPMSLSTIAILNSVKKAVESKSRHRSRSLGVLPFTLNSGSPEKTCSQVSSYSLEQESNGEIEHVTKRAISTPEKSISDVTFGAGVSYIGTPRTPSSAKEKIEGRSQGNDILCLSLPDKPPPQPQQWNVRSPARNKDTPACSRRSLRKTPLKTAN
# UniProt P42166: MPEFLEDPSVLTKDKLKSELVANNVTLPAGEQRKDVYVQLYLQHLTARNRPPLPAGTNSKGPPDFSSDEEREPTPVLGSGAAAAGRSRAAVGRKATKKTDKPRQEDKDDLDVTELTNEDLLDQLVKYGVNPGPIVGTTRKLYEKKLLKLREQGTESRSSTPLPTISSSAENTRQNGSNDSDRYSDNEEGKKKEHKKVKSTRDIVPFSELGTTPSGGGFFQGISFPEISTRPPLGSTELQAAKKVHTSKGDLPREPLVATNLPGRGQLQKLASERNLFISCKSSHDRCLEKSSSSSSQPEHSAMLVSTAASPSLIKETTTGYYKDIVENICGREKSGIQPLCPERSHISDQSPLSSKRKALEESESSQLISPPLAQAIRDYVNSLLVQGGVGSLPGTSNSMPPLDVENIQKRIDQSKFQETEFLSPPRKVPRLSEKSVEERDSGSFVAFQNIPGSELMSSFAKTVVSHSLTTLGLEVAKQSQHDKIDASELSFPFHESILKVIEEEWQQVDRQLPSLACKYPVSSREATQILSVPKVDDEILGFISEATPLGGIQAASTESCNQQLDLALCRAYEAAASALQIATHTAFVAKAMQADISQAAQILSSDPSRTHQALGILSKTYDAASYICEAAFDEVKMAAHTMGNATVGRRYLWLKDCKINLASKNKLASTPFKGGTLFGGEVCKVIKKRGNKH
# UniProt P51784: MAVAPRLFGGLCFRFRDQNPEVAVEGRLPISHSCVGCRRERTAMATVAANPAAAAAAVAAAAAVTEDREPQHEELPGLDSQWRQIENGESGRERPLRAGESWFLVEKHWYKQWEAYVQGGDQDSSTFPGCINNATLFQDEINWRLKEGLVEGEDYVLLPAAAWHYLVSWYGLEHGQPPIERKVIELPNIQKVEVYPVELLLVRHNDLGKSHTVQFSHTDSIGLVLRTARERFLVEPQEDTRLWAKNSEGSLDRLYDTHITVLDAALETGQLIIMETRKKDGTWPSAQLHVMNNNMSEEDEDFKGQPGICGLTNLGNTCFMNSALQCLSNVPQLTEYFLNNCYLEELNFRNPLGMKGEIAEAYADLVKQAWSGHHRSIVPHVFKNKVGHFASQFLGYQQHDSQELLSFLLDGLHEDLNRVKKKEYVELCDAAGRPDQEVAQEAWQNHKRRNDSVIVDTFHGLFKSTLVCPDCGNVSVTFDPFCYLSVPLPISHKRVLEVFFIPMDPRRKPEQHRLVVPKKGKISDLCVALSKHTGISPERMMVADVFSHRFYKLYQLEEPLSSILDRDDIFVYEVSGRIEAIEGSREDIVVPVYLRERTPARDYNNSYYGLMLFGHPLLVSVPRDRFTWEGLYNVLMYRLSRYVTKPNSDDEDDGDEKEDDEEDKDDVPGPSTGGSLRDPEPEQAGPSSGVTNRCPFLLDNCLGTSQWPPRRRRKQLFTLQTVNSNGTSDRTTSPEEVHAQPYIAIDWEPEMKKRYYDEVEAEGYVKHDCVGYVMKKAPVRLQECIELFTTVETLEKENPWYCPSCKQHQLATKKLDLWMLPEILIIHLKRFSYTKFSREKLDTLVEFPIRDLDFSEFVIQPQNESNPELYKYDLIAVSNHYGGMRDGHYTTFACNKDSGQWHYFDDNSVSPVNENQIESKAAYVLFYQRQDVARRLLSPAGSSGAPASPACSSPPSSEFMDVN
# UniProt P51798: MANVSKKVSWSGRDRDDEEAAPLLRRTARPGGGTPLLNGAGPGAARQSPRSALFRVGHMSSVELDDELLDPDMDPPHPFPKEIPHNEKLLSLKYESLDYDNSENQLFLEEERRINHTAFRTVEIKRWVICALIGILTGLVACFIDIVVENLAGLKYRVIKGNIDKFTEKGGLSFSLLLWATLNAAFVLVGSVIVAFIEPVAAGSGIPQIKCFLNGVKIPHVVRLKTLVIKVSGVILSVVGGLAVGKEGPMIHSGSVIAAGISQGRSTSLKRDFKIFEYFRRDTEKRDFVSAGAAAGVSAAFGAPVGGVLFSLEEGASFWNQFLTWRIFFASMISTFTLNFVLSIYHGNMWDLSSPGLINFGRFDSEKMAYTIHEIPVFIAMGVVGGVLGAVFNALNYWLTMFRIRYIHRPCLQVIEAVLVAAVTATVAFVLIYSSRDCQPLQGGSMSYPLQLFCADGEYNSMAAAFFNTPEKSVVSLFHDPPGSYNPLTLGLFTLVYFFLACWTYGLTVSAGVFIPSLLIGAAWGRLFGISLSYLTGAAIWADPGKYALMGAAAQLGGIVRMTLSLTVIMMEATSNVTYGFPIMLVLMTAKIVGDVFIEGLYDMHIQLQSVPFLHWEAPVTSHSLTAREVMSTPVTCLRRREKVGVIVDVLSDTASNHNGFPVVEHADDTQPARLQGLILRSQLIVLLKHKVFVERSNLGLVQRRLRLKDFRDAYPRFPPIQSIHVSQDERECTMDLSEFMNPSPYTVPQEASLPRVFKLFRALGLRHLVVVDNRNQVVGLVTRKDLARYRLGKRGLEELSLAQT
# UniProt P50583: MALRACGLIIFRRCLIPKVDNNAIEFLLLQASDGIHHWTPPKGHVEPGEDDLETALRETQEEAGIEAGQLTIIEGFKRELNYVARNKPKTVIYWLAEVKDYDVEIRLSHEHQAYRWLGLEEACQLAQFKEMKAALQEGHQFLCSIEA
# This is one part of the list. Single values of this set are uncertain.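 Tm was set to 64 °C where no melting was found, and many curves are irregular.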
# Compound: CCc1cnccc1C(=O)Nc1cc2c(cc1F)NC(=O)CC2
# Assay: melting temperature shift (DMSO Tm minus MBE1-treated Tm) in cellular thermal proteome profiling; higher = less thermal stabilization by MBE1 (negative = stabilized by MBE1)
# Details: A375
Target,melting temperature shift (MBE1 concentration: 100 nM) [°C],melting temperature shift (MBE1 concentration: 1 uM) [°C]
LIPA (UniProt P38571),-0.177,-1.8
RPL21 (UniProt P46778),-0.598,0.153
RPS5 (UniProt P46782),-1.02,2.91
INPP1 (UniProt P49441),-0.379,0.963
TMED10 (UniProt P49755),-0.104,-0.22
UniProt P48443,-0.0961,-0.455
UniProt P40306,0.302,-0.94
RPL27A (UniProt P46776),-0.556,-1.36
UniProt P51690,-1.94,-0.372
ALDH1A3 (UniProt P47895),-1.54,-1.25
TSFM (UniProt P43897),-0.276,-0.367
IGHMBP2 (UniProt P38935),-0.75,-0.611
GGCX (UniProt P38435),1.79,0.486
STAT5A (UniProt P42229),0.701,0.555
HTT (UniProt P42858),0.867,0.0794
PIP4K2A (UniProt P48426),0.727,-0.965
ANP32A (UniProt P39687),-0.753,1.33
TAF6 (UniProt P49848),-0.996,-0.623
SRP9 (UniProt P49458),-0.771,-0.126
NCAPD3 (UniProt P42695),-0.769,-0.525
LRPPRC (UniProt P42704),-0.218,-0.122
SSR4 (UniProt P51571),-2.25,-1.3
SLC1A4 (UniProt P43007),-0.914,-2.92

# Complete entries from above. Values in the order: melting temperature shift (MBE1 concentration: 100 nM) [°C]	melting temperature shift (MBE1 concentration: 1 uM) [°C]
# HTT (UniProt P42858) is entered as 0.867	0.0794
# LIPA (UniProt P38571) is entered as -0.177	-1.8
# RPS5 (UniProt P46782) is entered as -1.02	2.91
# NCAPD3 (UniProt P42695) is entered as -0.769	-0.525

# (cont.)

Target,melting temperature shift (MBE1 concentration: 100 nM) [°C],melting temperature shift (MBE1 concentration: 1 uM) [°C]
GMPS (UniProt P49915),0.403,0.611
UniProt P42166,-0.506,-0.141
VPS41 (UniProt P49754),-0.351,-0.442
MECP2 (UniProt P51608),-1.92,-0.418
CSK (UniProt P41240),0.629,0.293
CARS (UniProt P49589),-0.443,0.469
NOTCH1 (UniProt P46531),4.15,1.8
CLCN3 (UniProt P51790),-1.48,-2.32
USP11 (UniProt P51784),-0.211,-0.205
UniProt P42167,-0.657,-1.75
CLCN7 (UniProt P51798),-0.382,-0.212
RFX5 (UniProt P48382),0.122,0.611
UniProt P40855,-4.16,-2.81
FNTA (UniProt P49354),-0.396,-0.159
PAPOLA (UniProt P51003),0.0977,0.104
UniProt P42898,0.293,0.299
CDK8 (UniProt P49336),0.174,0.778
UniProt P49753,2.03,0.885
CAP2 (UniProt P40123),-0.0604,0.00611
ACTR1B (UniProt P42025),-1.44,0.661
UniProt P50443,-0.948,-0.959
MATR3 (UniProt P43243),-0.0448,-0.34
PSMC4 (UniProt P43686),-1.33,1.09

Target,melting temperature shift (MBE1 concentration: 100 nM) [°C],melting temperature shift (MBE1 concentration: 1 uM) [°C]
CPT1A (UniProt P50416),0.208,-0.134
TPMT (UniProt P51580),-0.731,0.476
MDH1 (UniProt P40925),-0.464,-0.659
RPL5 (UniProt P46777),-0.623,0.855
USP5 (UniProt P45974),-0.671,0.00611
PREP (UniProt P48147),-0.621,-0.461
LRBA (UniProt P50851),-0.248,0.379
UniProt P49448,0.0886,-0.591
CRKL (UniProt P46109),0.904,-0.452
RPL3 (UniProt P39023),-0.751,0.568
RPL35 (UniProt P42766),-0.574,-0.236
NUP153 (UniProt P49790),-0.639,0.165
PITPNB (UniProt P48739),-0.134,-0.302
UniProt P45984,-0.0671,-0.55
PIGA (UniProt P37287),0.57,-1.43
UniProt P50479,-1.13,-0.0916
NUDT2 (UniProt P50583),2.34,1.72
VASP (UniProt P50552),0.666,-0.0733
TRAPPC10 (UniProt P48553),1.95,0.721
RPS9 (UniProt P46781),-0.0427,0.189
RBM25 (UniProt P49756),-1.12,-0.585
UniProt P49841,-0.912,-0.503
NNMT (UniProt P40261),0.309,0.154
